Drug screen on melanoma cell lines: cell count

From a melanoma drug combination screen (doi:10.1371/journal.pone.0140310); values rounded.

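The test systems are human melanoma cell lines, treated with a pair of drugs for 72 h and then stained and imaged. Values are the number of DAPI-stained nuclei as a percentage of the DMSO control: 100 is no effect, lower means fewer cells. Concentrations were fixed for each drug; these are the lower of two levels, a fifth of the higher. These are primary screening values without error estimates.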 An unselected part of the screen is shown. A dash means that no value is listed here.

Every entry is a combination with selumetinib at 0.015 µM: Cn1cnc2c(F)c(Nc3ccc(Br)cc3Cl)c(C(=O)NOCCO)cc21

Drug key:
CP-690550: C[C@@H]1CCN(C(=O)CC#N)C[C@@H]1N(C)c1ncnc2[nH]ccc12 at 1 µM
ruxolitinib: N#CC[C@H](C1CCCC1)n1cc(-c2ncnc3[nH]ccc23)cn1 at 1 µM
MK-1775: C=CCn1c(=O)c2cnc(Nc3ccc(N4CCN(C)CC4)cc3)nc2n1-c1cccc(C(C)(C)O)n1 at 0.02 µM
SNS-032: CC(C)(C)c1cnc(CSc2cnc(NC(=O)C3CCNCC3)s2)o1 at 0.01 µM
ABT-263: CC1(C)CCC(c2ccc(Cl)cc2)=C(CN2CCN(c3ccc(C(=O)NS(=O)(=O)c4ccc(N[C@H](CCN5CCOCC5)CSc5ccccc5)c(S(=O)(=O)C(F)(F)F)c4)cc3)CC2)C1 at 0.4 µM
crizotinib: C[C@@H](Oc1cc(-c2cnn(C3CCNCC3)c2)cnc1N)c1c(Cl)ccc(F)c1Cl at 0.2 µM
PF-04217903: OCCn1cc(-c2cnc3nnn(Cc4ccc5ncccc5c4)c3n2)cn1 at 1 µM
lapatinib: CS(=O)(=O)CCNCc1ccc(-c2ccc3ncnc(Nc4ccc(OCc5cccc(F)c5)c(Cl)c4)c3c2)o1 at 0.8 µM
AZD7762: NC(=O)Nc1cc(-c2cccc(F)c2)sc1C(=O)N[C@H]1CCCNC1 at 0.02 µM
BI-78D3: O=c1[nH]nc(Sc2ncc([N+](=O)[O-])s2)n1-c1ccc2c(c1)OCCO2 at 0.2 µM
vincristine: CC[C@]1(O)C[C@H]2CN(CCc3c([nH]c4ccccc34)[C@@](C(=O)OC)(c3cc4c(cc3OC)N(C=O)[C@H]3[C@@](O)(C(=O)OC)[C@H](OC(C)=O)[C@]5(CC)C=CCN6CC[C@]43[C@@H]65)C2)C1 at 0.0001 µM
midostaurin: CO[C@@H]1[C@H](N(C)C(=O)c2ccccc2)C[C@H]2O[C@]1(C)n1c3ccccc3c3c4c(c5c6ccccc6n2c5c31)C(=O)NC4 at 0.08 µM
CX-4945: O=C(O)c1ccc2c(c1)nc(Nc1cccc(Cl)c1)c1ccncc12 at 0.4 µM
dovitinib: CN1CCN(c2ccc3nc(-c4c(N)c5c(F)cccc5[nH]c4=O)[nH]c3c2)CC1 at 0.1 µM
lenalidomide: Nc1cccc2c1CN(C1CCC(=O)NC1=O)C2=O (configuration not stated) at 1 µM
BMS-536924: Cc1cc(N2CCOCC2)cc2[nH]c(-c3c(NC[C@@H](O)c4cccc(Cl)c4)cc[nH]c3=O)nc12 at 0.2 µM
PLX4720: CCCS(=O)(=O)Nc1ccc(F)c(C(=O)c2c[nH]c3ncc(Cl)cc23)c1F at 0.08 µM
ZM336372: Cc1ccc(NC(=O)c2cccc(N(C)C)c2)cc1NC(=O)c1ccc(O)cc1 at 2 µM
perifosine: CCCCCCCCCCCCCCCCCCOP(=O)([O-])OC1CC[N+](C)(C)CC1 at 0.4 µM
cediranib: COc1cc2c(Oc3ccc4[nH]c(C)cc4c3F)ncnc2cc1OCCCN1CCCC1 at 0.4 µM
SNS-314: O=C(Nc1cccc(Cl)c1)Nc1ncc(CCNc2ncnc3ccsc23)s1 at 0.0008 µM
stibogluconate: O=C(O)[C@@H]1[O][Sb](=[O])([O][Sb]2(=[O])[O][C@H]([C@H](O)CO)[C@H](O)[C@H](C(=O)O)[O]2)[O][C@H]([C@H](O)CO)[C@@H]1O (some centres not stated) at 2 µM
GSK650394: O=C(O)c1ccc(-c2c[nH]c3ncc(-c4ccccc4)cc23)cc1C1CCCC1 at 0.16 µM
indole-3-carbinol: OCc1c[nH]c2ccccc12 at 0.8 µM
STA-4783: CN(NC(=O)CC(=O)NN(C)C(=S)c1ccccc1)C(=S)c1ccccc1 at 0.006 µM
VX-702: NC(=O)c1ccc(N(C(N)=O)c2c(F)cccc2F)nc1-c1ccc(F)cc1F at 0.4 µM
GW2580: COc1ccc(COc2ccc(Cc3cnc(N)nc3N)cc2OC)cc1 at 1 µM
KU-0063794: COc1ccc(-c2ccc3c(N4CCOCC4)nc(N4C[C@@H](C)O[C@@H](C)C4)nc3n2)cc1CO at 0.02 µM
tozasertib: Cc1cc(Nc2cc(N3CCN(C)CC3)nc(Sc3ccc(NC(=O)C4CC4)cc3)n2)n[nH]1 at 0.006 µM

| # | Second drug | G-361 | A101D | LOX IMVI | A375 | IST-MEL1 | COLO 792 | LB2518-MEL | C32 | COLO 800 | A2058 |
|---|---|---|---|---|---|---|---|---|---|---|---|
| 1 | PLX4720 | 74.1 | 76.6 | 122 | 45.1 | 98.0 | 83.6 | 71.3 | 85.2 | 62.1 | 110 |
| 2 | stibogluconate | 86.6 | 74.8 | 110 | 46.3 | 94.2 | 85.0 | 63.6 | 81.8 | 74.6 | 105 |
| 3 | dovitinib | 90.4 | 69.5 | 74.4 | 57.1 | 96.5 | 67.0 | 56.8 | 87.2 | 78.5 | 90.8 |
| 4 | MK-1775 | 80.9 | 80.5 | 108 | 61.5 | 94.8 | 101 | 61.9 | 87.4 | 95.4 | 90.4 |
| 5 | vincristine | 118 | 72.8 | 102 | 84.9 | 94.4 | 91.5 | 81.5 | 76.6 | 82.0 | 50.7 |
| 6 | SNS-314 | 78.9 | 97.6 | 103 | 93.1 | 101 | 89.1 | 62.5 | 95.5 | 103 | 93.7 |
| 7 | ZM336372 | 99.6 | 93.8 | 86.3 | 66.4 | 98.5 | 98.6 | 96.6 | 78.1 | 76.0 | 111 |
| 8 | VX-702 | 91.2 | 90.0 | 196 | 82.7 | 102 | 80.2 | 59.8 | 82.5 | 62.0 | 101 |
| 9 | CX-4945 | 79.3 | 87.5 | 71.6 | 92.2 | 97.8 | 93.3 | - | 92.3 | 112 | 96.7 |
| 10 | lapatinib | 86.3 | 94.0 | 95.1 | 72.2 | 94.0 | 68.0 | 69.4 | 87.8 | 77.6 | 91.8 |
| 11 | crizotinib | 85.1 | 107 | 103 | 88.6 | 88.3 | 91.9 | 71.1 | 87.6 | 153 | 99.0 |
| 12 | GSK650394 | 99.2 | 86.3 | 70.3 | 72.8 | 87.5 | 89.0 | 58.0 | 90.2 | 96.5 | 104 |
| 13 | ruxolitinib | 96.9 | 109 | 124 | 94.7 | 97.8 | 106 | 82.6 | 103 | 149 | 96.5 |
| 14 | SNS-032 | 98.7 | 84.3 | 68.1 | 79.4 | 92.3 | 80.4 | 54.8 | 84.4 | 72.1 | 96.0 |
| 15 | CP-690550 | 95.9 | 89.7 | 96.2 | 78.9 | 98.4 | 80.3 | 54.7 | 90.0 | 114 | 97.0 |
| 16 | GW2580 | 99.4 | 93.8 | 116 | - | 105 | 81.9 | 62.0 | 105 | 75.4 | 103 |
| 17 | perifosine | 98.0 | 114 | 74.6 | 95.5 | 92.9 | 85.0 | 70.2 | 76.7 | 74.2 | 94.5 |
| 18 | tozasertib | 103 | 110 | 73.8 | 87.7 | 96.2 | 91.2 | 70.8 | 90.6 | 79.8 | 100 |
| 19 | STA-4783 | 74.1 | 86.0 | 101 | 21.1 | 69.7 | 60.5 | 40.9 | 79.5 | 44.7 | 66.5 |
| 20 | BMS-536924 | 76.9 | 91.3 | 109 | 59.6 | 89.4 | 67.3 | 44.9 | 102 | 45.3 | 102 |
| 21 | AZD7762 | 107 | 87.1 | 175 | 57.6 | 97.2 | 99.6 | 74.5 | 90.4 | 99.9 | 121 |
| 22 | indole-3-carbinol | 99.7 | 94.3 | 112 | 77.9 | 93.0 | 69.8 | 63.9 | 84.2 | 80.0 | 102 |
| 23 | midostaurin | 79.3 | 84.2 | 73.5 | 95.3 | 93.2 | 79.4 | 65.3 | 79.2 | 92.0 | 83.5 |
| 24 | lenalidomide | 90.3 | 115 | 68.6 | 74.7 | 91.4 | 59.7 | 61.4 | 90.1 | 86.4 | 117 |
| 25 | KU-0063794 | 81.6 | 86.1 | 104 | - | 107 | 67.6 | 53.9 | 84.1 | 98.8 | 105 |
| 26 | ABT-263 | 82.6 | 64.7 | 54.3 | 65.1 | 88.7 | 51.8 | - | 60.8 | 37.4 | 93.1 |
| 27 | cediranib | 103 | 86.1 | 85.3 | 85.5 | 93.2 | 77.2 | 63.4 | 94.4 | 82.9 | 109 |
| 28 | PF-04217903 | 86.6 | 92.9 | 155 | 77.2 | 97.3 | 81.9 | - | 83.8 | 102 | 101 |
| 29 | BI-78D3 | 98.7 | 85.0 | 116 | 78.6 | 91.2 | 80.6 | 72.7 | 91.1 | 80.0 | 88.8 |

Some entries from above, unchanged:

Second drug	G-361	A101D	LOX IMVI	A375	IST-MEL1	COLO 792	LB2518-MEL	C32	COLO 800	A2058
PF-04217903	86.6	92.9	155	77.2	97.3	81.9	-	83.8	102	101
lenalidomide	90.3	115	68.6	74.7	91.4	59.7	61.4	90.1	86.4	117
MK-1775	80.9	80.5	108	61.5	94.8	101	61.9	87.4	95.4	90.4
stibogluconate	86.6	74.8	110	46.3	94.2	85.0	63.6	81.8	74.6	105